Experimental data reported in publication doi:10.1101/2022.06.14.496144.

Chains of the proteins cited; added tags and fusions are not shown. Lines headed by an entry give the natural chain unless they say otherwise; changes in a name come on top.
UniProt B5W3T4: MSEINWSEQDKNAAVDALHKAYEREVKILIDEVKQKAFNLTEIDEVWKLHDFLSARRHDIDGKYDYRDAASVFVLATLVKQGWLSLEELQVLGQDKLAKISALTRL

Molecular target: T1, SynOCP1 lacking the N-terminal extension (ΔNTE-SynOCP1) (Synechocystis sp. PCC 6803) (UniProt P74102)
T1 sequence: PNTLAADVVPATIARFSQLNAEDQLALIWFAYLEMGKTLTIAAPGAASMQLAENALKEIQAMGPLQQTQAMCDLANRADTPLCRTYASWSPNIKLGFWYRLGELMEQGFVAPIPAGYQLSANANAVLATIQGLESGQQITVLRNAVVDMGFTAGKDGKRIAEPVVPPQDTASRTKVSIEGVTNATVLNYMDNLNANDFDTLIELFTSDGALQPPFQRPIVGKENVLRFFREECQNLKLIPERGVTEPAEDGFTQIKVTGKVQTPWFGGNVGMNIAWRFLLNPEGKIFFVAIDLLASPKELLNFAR
Assay: SEC

- binding: binds
Substance: Fluorescence Recovery Protein homolog from Arthrospira (Limnospira) maxima (AmaxFRP) (from UniProt B5W3T4)

These are yes or no findings as the source states them, for the method shown. Binding calls can cover weak binding; strength is not graded here.
